Test results: the supplement of paper PMC10849652
This is one part of the list.

By UniProt entry, the sequences of proteins in these tests, tags left out. Where a name states a change or a piece, a line headed by the entry shows the natural chain unless it says otherwise.
UniProt P18206: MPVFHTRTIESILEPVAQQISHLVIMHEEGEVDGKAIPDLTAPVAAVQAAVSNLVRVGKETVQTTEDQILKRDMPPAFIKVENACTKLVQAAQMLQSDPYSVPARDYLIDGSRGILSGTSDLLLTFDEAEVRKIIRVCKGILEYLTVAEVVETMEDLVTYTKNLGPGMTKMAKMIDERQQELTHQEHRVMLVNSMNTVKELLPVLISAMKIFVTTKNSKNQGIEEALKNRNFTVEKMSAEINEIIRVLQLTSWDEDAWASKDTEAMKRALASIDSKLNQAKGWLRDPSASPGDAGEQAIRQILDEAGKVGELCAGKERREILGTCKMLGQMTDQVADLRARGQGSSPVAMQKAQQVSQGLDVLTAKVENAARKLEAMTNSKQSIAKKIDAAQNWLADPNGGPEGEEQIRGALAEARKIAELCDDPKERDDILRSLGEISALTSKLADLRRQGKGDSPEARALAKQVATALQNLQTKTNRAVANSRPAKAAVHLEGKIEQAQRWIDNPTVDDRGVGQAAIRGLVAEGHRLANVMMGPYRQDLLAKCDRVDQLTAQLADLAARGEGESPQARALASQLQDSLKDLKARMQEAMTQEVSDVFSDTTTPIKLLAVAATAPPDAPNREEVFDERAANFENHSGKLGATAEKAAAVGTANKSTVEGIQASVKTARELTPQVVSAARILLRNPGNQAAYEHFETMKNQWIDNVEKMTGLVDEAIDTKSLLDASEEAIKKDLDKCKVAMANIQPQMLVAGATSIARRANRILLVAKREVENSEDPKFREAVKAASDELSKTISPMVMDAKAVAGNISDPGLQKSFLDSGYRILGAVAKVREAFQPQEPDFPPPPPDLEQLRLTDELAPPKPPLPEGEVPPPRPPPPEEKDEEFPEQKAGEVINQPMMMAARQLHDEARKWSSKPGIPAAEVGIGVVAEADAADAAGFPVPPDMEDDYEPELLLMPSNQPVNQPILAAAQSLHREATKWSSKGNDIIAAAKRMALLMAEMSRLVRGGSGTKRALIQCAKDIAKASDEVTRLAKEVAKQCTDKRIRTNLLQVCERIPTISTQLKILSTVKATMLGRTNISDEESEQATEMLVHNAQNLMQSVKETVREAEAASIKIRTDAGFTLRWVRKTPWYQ
UniProt Q9UHD9, whole entry, looked up: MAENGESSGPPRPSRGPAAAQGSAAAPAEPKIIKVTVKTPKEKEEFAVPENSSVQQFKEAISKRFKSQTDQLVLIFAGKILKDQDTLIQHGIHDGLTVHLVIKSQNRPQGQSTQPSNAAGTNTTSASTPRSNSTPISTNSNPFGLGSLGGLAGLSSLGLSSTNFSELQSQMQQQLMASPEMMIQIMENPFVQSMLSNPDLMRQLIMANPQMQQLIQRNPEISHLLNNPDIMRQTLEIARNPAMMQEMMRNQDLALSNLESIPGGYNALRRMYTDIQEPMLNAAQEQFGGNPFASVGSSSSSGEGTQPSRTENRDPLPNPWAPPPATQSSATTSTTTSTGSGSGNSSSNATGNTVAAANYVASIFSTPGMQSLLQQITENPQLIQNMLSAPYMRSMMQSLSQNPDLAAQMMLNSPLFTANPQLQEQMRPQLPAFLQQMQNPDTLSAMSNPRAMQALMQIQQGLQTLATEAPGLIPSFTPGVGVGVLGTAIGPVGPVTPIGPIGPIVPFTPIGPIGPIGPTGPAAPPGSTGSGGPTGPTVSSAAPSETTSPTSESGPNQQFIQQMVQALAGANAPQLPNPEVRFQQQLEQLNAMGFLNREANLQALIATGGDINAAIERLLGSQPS
UniProt Q9HA47: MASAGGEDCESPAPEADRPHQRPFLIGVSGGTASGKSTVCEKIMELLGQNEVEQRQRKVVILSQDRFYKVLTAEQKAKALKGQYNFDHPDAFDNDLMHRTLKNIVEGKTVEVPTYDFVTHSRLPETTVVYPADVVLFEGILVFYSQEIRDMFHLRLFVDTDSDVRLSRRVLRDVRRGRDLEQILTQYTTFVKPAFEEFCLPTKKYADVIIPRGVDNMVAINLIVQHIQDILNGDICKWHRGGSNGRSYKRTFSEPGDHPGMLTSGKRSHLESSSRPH
UniProt Q15386: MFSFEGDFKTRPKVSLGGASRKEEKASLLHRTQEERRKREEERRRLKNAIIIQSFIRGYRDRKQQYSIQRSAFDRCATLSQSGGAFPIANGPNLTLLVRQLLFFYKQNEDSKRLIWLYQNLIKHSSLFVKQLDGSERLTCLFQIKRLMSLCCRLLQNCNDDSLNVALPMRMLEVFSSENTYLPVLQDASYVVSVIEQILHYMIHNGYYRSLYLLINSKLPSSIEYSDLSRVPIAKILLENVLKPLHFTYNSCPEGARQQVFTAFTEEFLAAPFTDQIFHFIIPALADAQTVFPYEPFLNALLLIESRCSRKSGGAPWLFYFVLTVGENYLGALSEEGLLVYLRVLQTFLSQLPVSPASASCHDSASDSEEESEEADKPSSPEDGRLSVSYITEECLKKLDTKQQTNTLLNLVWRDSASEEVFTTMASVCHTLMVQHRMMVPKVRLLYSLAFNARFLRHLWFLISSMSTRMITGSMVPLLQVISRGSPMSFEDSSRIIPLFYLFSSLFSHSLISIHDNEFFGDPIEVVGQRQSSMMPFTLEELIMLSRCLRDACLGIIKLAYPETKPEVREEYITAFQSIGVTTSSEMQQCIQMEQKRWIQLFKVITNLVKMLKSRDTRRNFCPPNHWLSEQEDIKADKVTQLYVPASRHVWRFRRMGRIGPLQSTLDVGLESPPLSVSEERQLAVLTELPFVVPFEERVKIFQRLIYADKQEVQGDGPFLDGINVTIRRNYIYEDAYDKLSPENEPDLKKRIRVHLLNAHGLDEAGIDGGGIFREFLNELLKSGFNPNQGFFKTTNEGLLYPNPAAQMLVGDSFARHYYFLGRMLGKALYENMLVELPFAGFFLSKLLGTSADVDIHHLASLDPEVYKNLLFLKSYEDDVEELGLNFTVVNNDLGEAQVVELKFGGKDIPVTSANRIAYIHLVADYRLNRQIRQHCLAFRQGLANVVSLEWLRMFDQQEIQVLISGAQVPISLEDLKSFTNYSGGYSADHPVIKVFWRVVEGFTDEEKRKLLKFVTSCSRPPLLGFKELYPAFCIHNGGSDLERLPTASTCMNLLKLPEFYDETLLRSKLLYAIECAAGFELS
UniProt Q16851: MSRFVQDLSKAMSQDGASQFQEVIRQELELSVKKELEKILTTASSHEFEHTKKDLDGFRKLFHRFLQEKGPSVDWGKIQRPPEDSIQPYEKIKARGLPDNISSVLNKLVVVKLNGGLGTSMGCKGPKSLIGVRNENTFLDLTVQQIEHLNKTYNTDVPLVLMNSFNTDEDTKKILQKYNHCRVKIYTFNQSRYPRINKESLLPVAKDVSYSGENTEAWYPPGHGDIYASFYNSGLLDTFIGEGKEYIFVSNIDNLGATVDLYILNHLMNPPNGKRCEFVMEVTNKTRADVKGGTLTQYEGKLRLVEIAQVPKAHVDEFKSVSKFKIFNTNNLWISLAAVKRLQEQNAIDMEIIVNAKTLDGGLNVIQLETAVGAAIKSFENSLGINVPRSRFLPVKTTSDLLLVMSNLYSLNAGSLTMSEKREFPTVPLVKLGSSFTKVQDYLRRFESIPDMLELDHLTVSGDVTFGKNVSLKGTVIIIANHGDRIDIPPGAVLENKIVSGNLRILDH
UniProt Q14694, whole entry, looked up: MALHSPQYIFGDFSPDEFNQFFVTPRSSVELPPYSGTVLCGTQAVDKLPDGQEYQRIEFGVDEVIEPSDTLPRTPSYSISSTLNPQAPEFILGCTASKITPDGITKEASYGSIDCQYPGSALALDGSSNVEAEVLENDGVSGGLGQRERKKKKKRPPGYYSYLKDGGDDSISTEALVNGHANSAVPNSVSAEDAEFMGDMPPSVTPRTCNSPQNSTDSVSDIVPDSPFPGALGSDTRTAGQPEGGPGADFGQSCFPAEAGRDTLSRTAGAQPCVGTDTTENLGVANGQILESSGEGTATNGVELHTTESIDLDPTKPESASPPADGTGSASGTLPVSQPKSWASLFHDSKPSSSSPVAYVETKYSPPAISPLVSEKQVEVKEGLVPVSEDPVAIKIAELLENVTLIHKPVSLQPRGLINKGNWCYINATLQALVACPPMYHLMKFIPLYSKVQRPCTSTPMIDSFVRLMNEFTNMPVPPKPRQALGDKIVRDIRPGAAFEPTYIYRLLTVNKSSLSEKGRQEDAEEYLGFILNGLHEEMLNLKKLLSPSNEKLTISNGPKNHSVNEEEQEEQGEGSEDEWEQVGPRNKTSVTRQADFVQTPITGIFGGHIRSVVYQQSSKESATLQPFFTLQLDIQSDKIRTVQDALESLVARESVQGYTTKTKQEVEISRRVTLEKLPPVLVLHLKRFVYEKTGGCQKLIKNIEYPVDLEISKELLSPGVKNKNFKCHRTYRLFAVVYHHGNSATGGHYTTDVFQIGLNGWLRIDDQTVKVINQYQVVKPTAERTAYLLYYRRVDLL
UniProt Q96S82: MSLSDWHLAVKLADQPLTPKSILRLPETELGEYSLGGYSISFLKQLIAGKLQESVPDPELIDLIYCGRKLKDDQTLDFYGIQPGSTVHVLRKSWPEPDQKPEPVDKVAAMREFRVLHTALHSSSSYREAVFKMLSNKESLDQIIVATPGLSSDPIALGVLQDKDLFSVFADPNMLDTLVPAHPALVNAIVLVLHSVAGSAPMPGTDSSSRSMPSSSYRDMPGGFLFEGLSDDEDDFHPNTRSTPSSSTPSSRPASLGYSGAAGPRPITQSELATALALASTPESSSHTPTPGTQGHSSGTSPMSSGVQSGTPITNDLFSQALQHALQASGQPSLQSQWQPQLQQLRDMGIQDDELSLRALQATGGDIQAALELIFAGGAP
UniProt P31930: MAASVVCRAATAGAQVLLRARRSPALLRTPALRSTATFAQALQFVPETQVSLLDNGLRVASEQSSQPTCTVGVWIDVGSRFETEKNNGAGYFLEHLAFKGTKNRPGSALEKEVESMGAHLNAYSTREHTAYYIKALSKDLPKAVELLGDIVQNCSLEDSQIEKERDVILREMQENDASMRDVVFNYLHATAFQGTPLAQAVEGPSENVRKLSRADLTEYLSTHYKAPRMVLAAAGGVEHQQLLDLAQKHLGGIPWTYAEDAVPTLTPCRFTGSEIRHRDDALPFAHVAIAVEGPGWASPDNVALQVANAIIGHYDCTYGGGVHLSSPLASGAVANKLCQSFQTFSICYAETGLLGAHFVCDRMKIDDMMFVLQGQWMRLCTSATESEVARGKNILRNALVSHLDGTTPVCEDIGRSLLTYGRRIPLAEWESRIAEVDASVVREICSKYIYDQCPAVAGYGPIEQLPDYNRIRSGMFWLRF
UniProt Q9H3U1: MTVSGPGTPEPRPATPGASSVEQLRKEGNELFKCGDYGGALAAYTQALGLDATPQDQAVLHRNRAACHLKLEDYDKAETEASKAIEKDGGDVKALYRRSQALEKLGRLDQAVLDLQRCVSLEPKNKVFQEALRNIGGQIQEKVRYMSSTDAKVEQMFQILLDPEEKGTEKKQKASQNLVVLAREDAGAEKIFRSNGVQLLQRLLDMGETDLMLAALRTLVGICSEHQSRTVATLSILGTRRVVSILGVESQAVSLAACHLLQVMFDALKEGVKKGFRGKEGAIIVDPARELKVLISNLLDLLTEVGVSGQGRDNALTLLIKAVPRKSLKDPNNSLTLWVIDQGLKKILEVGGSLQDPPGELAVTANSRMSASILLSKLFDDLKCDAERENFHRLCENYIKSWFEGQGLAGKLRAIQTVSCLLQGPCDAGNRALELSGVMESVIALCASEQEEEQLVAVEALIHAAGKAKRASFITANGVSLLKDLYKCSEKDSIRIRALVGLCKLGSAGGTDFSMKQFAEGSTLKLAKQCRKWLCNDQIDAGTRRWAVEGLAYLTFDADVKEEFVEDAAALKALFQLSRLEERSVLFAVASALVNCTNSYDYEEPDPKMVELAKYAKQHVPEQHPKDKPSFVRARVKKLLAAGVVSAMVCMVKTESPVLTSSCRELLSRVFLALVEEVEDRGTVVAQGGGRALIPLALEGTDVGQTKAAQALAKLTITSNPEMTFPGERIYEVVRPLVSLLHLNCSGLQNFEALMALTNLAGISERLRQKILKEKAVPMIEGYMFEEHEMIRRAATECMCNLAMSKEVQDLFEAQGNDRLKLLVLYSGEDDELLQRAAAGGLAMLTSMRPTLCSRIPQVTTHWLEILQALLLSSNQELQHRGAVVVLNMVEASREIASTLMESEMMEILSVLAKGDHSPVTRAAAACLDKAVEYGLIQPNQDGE
UniProt O00124: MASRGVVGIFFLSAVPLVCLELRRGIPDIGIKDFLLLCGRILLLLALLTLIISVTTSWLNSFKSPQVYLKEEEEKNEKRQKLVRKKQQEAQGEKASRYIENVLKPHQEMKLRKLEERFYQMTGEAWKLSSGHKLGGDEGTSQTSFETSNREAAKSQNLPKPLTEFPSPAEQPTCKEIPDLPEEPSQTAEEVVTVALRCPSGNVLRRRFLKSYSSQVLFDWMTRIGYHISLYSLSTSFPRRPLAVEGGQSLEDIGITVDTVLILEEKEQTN

Assays:
Test in all cases: log2 fold change, soluble protein after heating vs DMSO (PISA); higher = thermal stabilisation; K562 cells, 10 uM, 30 min; active = over 0.2 and 3.5 SD of the protein, either way, in both replicates (recomputed)
[1] = compound: CC1=C(C=C(C=C1)NC(=O)C2=CC(=CC=C2)C(C)(C)C#N)NC3=CC4=C(C=C3)N=CN(C4=O)C
Method in brief: (§1)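 Thermal stability values are relative to control samples and come from duplicates. They are expressed as log2 fold changes. For measurement, K562 cells (2×10^6 cells/mL) received 10 μM compound for 30 min, and aliquots were heated for 3 min over 48°C-58°C, pooled, and extracted at 4°C in PBS with 0.5% NP-40. Soluble protein, the supernatant after 21,000xg for 90 min, was quantified by TMTpro 16plex LC-MS/MS with equalised channel sums.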

[2] = compound: CC1=C(C=C(C=C1)NC(=O)C2=CC(=CC=C2)N(C)C)NC(=O)C3=CC=C(C=C3)O
Method in brief: as §1

[3] = compound: CC1=CC=C(C=C1)SC2=C3C=C(SC3=CN=C2)C(=O)N
Method in brief: as §1

[4] = compound: CC1=NC(=CC=C1)C2=C(N=C(N2)C(C)(C)C)C3=CC4=NC=CN=C4C=C3
Method in brief: as §1

Nexturastat A = compound: CCCCN(Cc1ccc(C(=O)NO)cc1)C(=O)Nc1ccccc1 [Nexturastat A]
Method in brief: as §1

vemurafenib = compound: CCCS(=O)(=O)Nc1ccc(F)c(C(=O)c2c[nH]c3ncc(-c4ccc(Cl)cc4)cc23)c1F [vemurafenib]
Method in brief: as §1

[5] = compound: CCCS(=O)(=O)Nc1ccc(F)c(C(=O)c2c[nH]c3ncc(Cl)cc23)c1F
Method in brief: as §1

[6] = compound: CCCc1cc(C)[nH]c(=O)c1CNC(=O)c1cc(-c2ccnc(N3CCN(C)CC3)c2)cc2c1cnn2C(C)C
Method in brief: as §1

givinostat = compound: CCN(CC)Cc1ccc2cc(COC(=O)Nc3ccc(C(=O)NO)cc3)ccc2c1 [givinostat]
Method in brief: as §1

barasertib = compound: CCN(CCCOc1ccc2c(Nc3cc(CC(=O)Nc4cccc(F)c4)[nH]n3)ncnc2c1)CCOP(=O)(O)O [barasertib]
Method in brief: as §1

Measured: log2 fold change

UGT8 (UniProt Q16880)
inactive: [1] 0.289 | [2] -0.02 | [3] 0.021 | [4] -0.098 | Nexturastat A -0.042 | vemurafenib -0.039 | [5] -0.083 | [6] 0.211 | givinostat -0.053 | barasertib -0.129

VCL (UniProt P18206)
inactive: [1] 0.012 | [2] 0.022 | [3] 0.012 | [4] 0.023 | Nexturastat A -0.091 | vemurafenib 0.005 | [5] -0.015 | [6] 0.008 | givinostat -0.018 | barasertib -0.015

UBR5 (UniProt O95071)
inactive: [1] 0.001 | [2] 0.001 | [3] -0.045 | [4] -0.009 | Nexturastat A 0.071 | vemurafenib 0.015 | [5] -0.003 | [6] 0.058 | givinostat 0.05 | barasertib -0.007

UCKL1 (UniProt Q9NWZ5)
inactive: [1] 0.088 | [2] 0.001 | [3] -0.031 | [4] 0.022 | Nexturastat A -0.046 | vemurafenib 0.006 | [5] -0.011 | [6] -0.081 | givinostat 0.002 | barasertib 0.045

Two neighbouring entries from above:
VCL (UniProt P18206)
inactive: [1] 0.012 | [2] 0.022 | [3] 0.012 | [4] 0.023 | Nexturastat A -0.091 | vemurafenib 0.005 | [5] -0.015 | [6] 0.008 | givinostat -0.018 | barasertib -0.015

UBR5 (UniProt O95071)
inactive: [1] 0.001 | [2] 0.001 | [3] -0.045 | [4] -0.009 | Nexturastat A 0.071 | vemurafenib 0.015 | [5] -0.003 | [6] 0.058 | givinostat 0.05 | barasertib -0.007

(cont.)

UBL4A (UniProt P11441)
inactive: [1] 0.058 | [2] -0.021 | [3] 0.016 | [4] 0.021 | Nexturastat A -0.023 | vemurafenib 0.095 | [5] 0.078 | [6] -0.01 | givinostat -0.02 | barasertib 0.04

USP9X (UniProt Q93008)
inactive: [1] -0.015 | [2] -0.02 | [3] -0.009 | [4] 0.023 | Nexturastat A 0.015 | vemurafenib 0.019 | [5] 0.075 | [6] 0.007 | givinostat 0.025 | barasertib 0.043

UBLCP1 (UniProt Q8WVY7)
inactive: [1] -0.011 | [2] -0.078 | [3] -0.03 | [4] 0.03 | Nexturastat A 0.025 | vemurafenib 0.076 | [5] 0.093 | [6] -0.006 | givinostat 0.122 | barasertib 0.057

UBQLN2 (UniProt Q9UHD9)
inactive: [1] 0.007 | [2] -0.003 | [3] 0.023 | [4] -0.005 | Nexturastat A 0.038 | vemurafenib 0.094 | [5] 0.038 | [6] -0.085 | givinostat -0.004 | barasertib -0.008

USP39 (UniProt Q53GS9)
inactive: [1] -0.038 | [2] 0.017 | [3] -0.038 | [4] -0.008 | Nexturastat A 0.114 | vemurafenib 0.013 | [5] 0.001 | [6] 0.066 | givinostat 0.005 | barasertib -0.01

UTP14A (UniProt Q9BVJ6)
inactive: [1] 0.028 | [2] 0.008 | [3] -0.002 | [4] -0.068 | Nexturastat A 0.194 | vemurafenib -0.066 | [5] 0.028 | [6] 0.109 | givinostat 0.048 | barasertib -0.112

VAMP2 (UniProt P63027)
inactive: [1] 0.064 | [2] -0.039 | [3] 0.042 | [4] 0.112 | Nexturastat A -0.072 | vemurafenib 0.167 | [5] 0.055 | [6] 0.187 | givinostat 0.034 | barasertib 0.004

USP19 isoform 6 (UniProt O94966)
inactive: [1] 0.026 | [2] -0.009 | [3] -0.002 | [4] -0.011 | Nexturastat A -0.05 | vemurafenib 0.061 | [5] 0.014 | [6] 0.032 | givinostat 0.044 | barasertib -0.008

UXS1 isoform 2 (UniProt Q8NBZ7)
inactive: [1] -0.018 | [2] 0.179 | [3] -0.042 | [4] -0.009 | Nexturastat A 0.088 | vemurafenib 0.018 | [5] -0.025 | [6] 0.013 | givinostat -0.004 | barasertib -0.003

UCK1 (UniProt Q9HA47)
inactive: [1] 0.038 | [2] -0.108 | [3] 0.026 | [4] 0.003 | Nexturastat A -0.05 | vemurafenib -0.05 | [5] 0.013 | [6] 0.152 | givinostat -0.067 | barasertib -0.006

UGDH (UniProt O60701)
inactive: [1] 0.039 | [2] -0.005 | [3] 0.028 | [4] 0.083 | Nexturastat A -0.064 | vemurafenib 0.043 | [5] 0.102 | [6] -0.097 | givinostat 0.031 | barasertib 0.079

UBE3C (UniProt Q15386)
inactive: [1] 0.028 | [2] -0.008 | [3] 0.021 | [4] -0.016 | Nexturastat A 0.035 | vemurafenib -0.033 | [5] 0.062 | [6] 0.011 | givinostat 0.039 | barasertib 0.009

UGP2 (UniProt Q16851)
inactive: [1] -0.003 | [2] 0.007 | [3] 0.019 | [4] 0.023 | Nexturastat A -0.068 | vemurafenib -0.005 | [5] 0.028 | [6] 0.002 | givinostat -0.008 | barasertib -0.005

UFSP2 (UniProt Q9NUQ7)
inactive: [1] 0.006 | [2] -0.043 | [3] -0.028 | [4] -0.023 | Nexturastat A 0.031 | vemurafenib 0.069 | [5] 0.026 | [6] 0.039 | givinostat 0.046 | barasertib 0.009

VANGL1 (UniProt Q8TAA9)
inactive: [1] 0 | [2] 0.041 | [3] 0.069 | [4] 0.01 | Nexturastat A -0.139 | vemurafenib 0.077 | [5] 0.031 | [6] -0.117 | givinostat -0.04 | barasertib 0.066

VAMP4 (UniProt O75379)
inactive: [1] -0.059 | [2] 0.002 | [3] -0.046 | [4] -0.017 | Nexturastat A 0.174 | vemurafenib 0.022 | [5] -0.056 | [6] -0.031 | givinostat -0.042 | barasertib -0.025

UCHL5 (UniProt Q9Y5K5)
inactive: [1] 0.014 | [2] -0.07 | [3] 0.019 | [4] 0.053 | Nexturastat A 0.048 | vemurafenib 0.075 | [5] 0.08 | [6] 0.003 | givinostat 0.057 | barasertib 0.024

USP10 isoform 2 (UniProt Q14694)
inactive: [1] 0.036 | [2] 0.046 | [3] -0.03 | [4] 0.006 | Nexturastat A 0.106 | vemurafenib 0.029 | [5] 0.033 | [6] 0 | givinostat 0.023 | barasertib -0.043

UBP1 (UniProt Q9NZI7)
inactive: [1] 0.003 | [2] -0.061 | [4] -0.142 | Nexturastat A 0.347 | vemurafenib 0.091 | [6] -0.242 | barasertib -0.014

UBL7 (UniProt Q96S82)
inactive: [1] -0.037 | [2] -0.029 | [3] -0.019 | [4] 0.086 | Nexturastat A -0.128 | vemurafenib 0.122 | [5] 0.076 | [6] -0.071 | givinostat 0.012 | barasertib 0.09

ULBP2 (UniProt Q9BZM5)
inactive: [1] -0.085 | [2] 0.014 | [3] -0.131 | Nexturastat A -0.296 | [5] -0.394 | [6] -0.031

USP15 (UniProt Q9Y4E8)
inactive: [1] 0.025 | [2] -0.044 | [3] 0.023 | [4] 0.027 | Nexturastat A -0.001 | vemurafenib 0.04 | [5] 0.053 | [6] 0.041 | givinostat 0.025 | barasertib 0.06

USP1 (UniProt O94782)
inactive: [1] -0.014 | [2] -0.059 | [4] 0.182 | Nexturastat A -0.065 | vemurafenib 0.032 | givinostat 0.044 | barasertib -0.019

UQCRC1 (UniProt P31930)
inactive: [1] -0.012 | [2] -0.01 | [3] -0.01 | [4] 0.005 | Nexturastat A -0.017 | vemurafenib -0.02 | [5] -0.011 | [6] -0.007 | givinostat -0.023 | barasertib 0.012

UBE4B isoform 4 (UniProt O95155)
inactive: [1] 0.007 | [2] -0.012 | [3] 0.001 | [4] 0.014 | Nexturastat A -0.017 | vemurafenib 0.024 | [5] 0.045 | [6] -0.008 | givinostat 0.008 | barasertib 0.042

UNC45A (UniProt Q9H3U1)
inactive: [1] 0.025 | [2] -0.003 | [3] 0.031 | [4] -0.035 | Nexturastat A 0.198 | vemurafenib 0.029 | [5] 0.091 | [6] 0.058 | givinostat 0.071 | barasertib 0.094

UBXN8 (UniProt O00124)
inactive: [1] -0.029 | [2] 0.169 | [3] 0.023 | Nexturastat A 0.334 | vemurafenib 0.089 | [5] -0.024 | barasertib -0.218
